Laboratory results taken from article PMC7538584.
These are yes or no findings as the source states them, for the method shown. Binding seen in cells or lysates may run through a third protein. Some results given as binding are weak or reduced against the parent protein; the word gives no strength.

Sequences of proteins named here, by UniProt entry; tags and fusion partners are left off. Residues count along the entry.
UniProt P25799, residues 1-431: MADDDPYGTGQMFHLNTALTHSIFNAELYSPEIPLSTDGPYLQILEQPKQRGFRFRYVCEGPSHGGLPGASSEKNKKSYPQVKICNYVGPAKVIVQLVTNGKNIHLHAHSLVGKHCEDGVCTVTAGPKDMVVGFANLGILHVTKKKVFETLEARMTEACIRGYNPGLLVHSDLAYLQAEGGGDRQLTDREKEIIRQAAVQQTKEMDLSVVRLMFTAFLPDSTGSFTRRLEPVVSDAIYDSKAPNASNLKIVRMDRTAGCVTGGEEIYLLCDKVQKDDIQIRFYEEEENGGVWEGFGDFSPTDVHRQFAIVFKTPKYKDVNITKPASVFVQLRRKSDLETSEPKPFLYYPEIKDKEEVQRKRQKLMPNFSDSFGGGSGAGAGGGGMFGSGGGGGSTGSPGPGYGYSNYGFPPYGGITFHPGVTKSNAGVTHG

Assays:
[1] = molecular target: p50, endogenous mouse (mouse (endogenous in primary MEFs)) (UniProt P25799); test: condition: only lysate treated with lambda phosphatase; co-IP; endogenous proteins; lysate treated with lambda protein phosphatase prior to IP with anti-p50, IB with anti-Bard1
[2] = molecular target: p50, endogenous mouse (mouse (endogenous in primary MEFs)) (UniProt P25799); test: co-IP; WT MEFs expressing TopBP1^ER transfected with si-CHK1 and treated with TAM (4 h); IP with anti-p50, immunoblot
[3] = molecular target: p50, endogenous mouse (mouse (endogenous in primary MEFs)) (UniProt P25799); test: co-IP; endogenous proteins in primary WT MEFs, HeLa and MCF-7 cells; IP with anti-p50, immunoblot; cells untreated, treated with HU (2 mM, 4 h), with tamoxifen (4 h) in cells expressing TopBP1^ER or GFP^ER, or synchronized by double-thymidine block; knock-down of BRCA1 or BCL3 did not remove the association

- binding [1]: no binding
- binding [3]: binds
B1: Bard1, endogenous mouse (protein, UniProt O70445 1-765)
chain: MPRRPPRVCSGNQPAPVPAMEPATDGLWAHSRAALARLEKLLRCSRCANILKEPVCLGGCEHIFCSGCISDCVGSGCPVCYTPAWILDLKINRQLDSMIQLSSKLQNLLHDNKDSKDNTSRASLFGDAERKKNSIKMWFSPRSKKVRYVVTKVSVQTQPQKAKDDKAQEASMYEFVSATPPVAVPKSAKTASRTSAKKHPKKSVAKINREENLRPETKDSRFDSKEELKEEKVVSCSQIPVMERPRVNGEIDLLASGSVVEPECSGSLTEVSLPLAEHIVSPDTVSKNEETPEKKVCVKDLRSGGSNGNRKGCHRPTTSTSDSCGSNIPSTSRGIGEPALLAENVVLVDCSSLPSGQLQVDVTLRRKSNASDDPLSLSPGTPPPLLNNSTHRQMMSSPSTVKLSSGMPARKRNHRGETLLHIASIKGDIPSVEYLLQNGNDPNVKDHAGWTPLHEACSHGHLKVVELLLQHNALVNTPGYQNDSPLHDAVKSGHIDIVKVLLSHGASRNAVNIFGVRPVDYTDNENIRSLLLLPEENESFSTSQCSIVNTGQRKNGPLVFIGSGLSSQQQKMLSKLETVLKAKKCMEFDSTVTHVIVPDEEAQSTLKCMLGILSGCWILKFDWVKACLDSKVREQEEKYEVPGGPQRSRLNREQLLPKLFDGCYFFLGGNFKHHPRDDLLKLIAAAGGKVLSRKPKPDSDVTQTINTVAYHAKPESDQRFCTQYIVYEDLFNCHPERVRQGKVWMAPSTWLISCIMAFELLPLDS
- binding [2]: no binding (condition: after knock-down of CHK1 (si-CHK1))
